No constants are given. Whether binding was seen depends on the method and setting. Binding seen in cells or lysates may run through a third protein. Here binding means that the protein was enriched with, or labelled near, the bait; the list need not be complete.
B1: Slf2 (protein, UniProt Q6P9P0 1-1278)
chain: MTRRCMPARPGFPSSPAPGSSPPRCHLRPGSTAPAAAGKRTESPGDRKQSIIDFFKPAAKQDKHMLDSPQKSNIKYRGNGLSITGTEQFERKLSSPKKLKPKRMSSEESPILEAFMKGGKEHHKDRGVHESRRPCMSLSKYLPKGAGIYAPSSYRLPKEIKAQKKKHQSPERRKSLFIHESNREKNDRDRGKNSEDSRKQATATEGDIFKHSSRSISSRSSLSRHHPGESTLGARFQLSLASYWREREQKKLRKEQMEQRINSENSFSEASNLSLKSSGVGKNCKPRHEHSKHTEAVPGKSNLSTLENGHLSRKRSSSDSWELSGSKQNKFSDKRTEELCGLRPEKHKRTYHTKSKRVLSREAPRHIPSERKVYQTHCTEDSWWCSALGRHSQGAGKTVSRGMSIASTLRLYLGRVISQLWKMDISQEKDHLQTRGNFQALNRINSPTKEQRNSVDSDLKSTKEPIIPKARESFLEKRPDTSHQREKFIRHIALKTPGGVLRLEDIAKEPEDETDRSSADSAPSNAGHHSSRNSDQVHSASTKETKIQKPHLPLPQEKSTIKRASNLQKNKPAGSVTSKETKLPLLSHVPSAVSSRVPLNAKNCTLPVPKKDKERSSSKERSGHSTESSKHKEHRAKTIKAVSNESSGKNSGGSLHSEYAPPTASPPAALEVVPSVPSPAAPSDKESSGNSNAGSNALKRKFRGDFDSDEESLGYTLESDEEEETLKSLEEIMALNFSRTPTTSGKPPAVSKGLRSQSSDMKEYAQSGTYTNTLERLVKEMEDTQRLDELQKKLQEDIRQGRGIKSPLRTGDQDSTDDGDGLLEEHREFLKKFSVTVDAIPDHHPGEEIFNFLNSGKIFNQYTLDLRDSGFIGESAVEKLILKSGKTDQIFLTTQGFLTTAYHYVQCPVPVLKWLFRMMSVHTDCIVSVQILSTLMEITIRNDTFSDSPVWPWIPSLSDIAAVFFNMGVGFGSLFPLETLQPDFNEENLISETQKTLGGKESEDSPYSPVFSALPETNILNVVKFLGLCTSIHPEGYQDGELMLLILMLFKMSLEKELKQIPLVDFQSLLINLMKNIRDWNTKVHELCLGINELSSHPHNLLWLVQLVPNWTSRGRQLRQCLSLVMMSKLLDEKHEDIPNANNLQISVLHRYLVQMKPSDLLKKMVLKKRAEQPNETIDDSLHLELEKQAYYLTYILLHLVGEVSCSHSLSSGQRKHFVLLCGALEKHVKCDIREDARLFYRTKVKDLVARIHGKWQEIIQNCRPTQGQLHDFWVPDS
B2: Wdr18 (protein, UniProt Q4VBE8 1-431)
chain: MAAPMEVVVCTDAAAQLWSCVVWELHSGANLLTYRGGQAGPRGLALLNGEYLLAAQQGKNYICAWELQRKDQLQQKIMCPGPVTCLTTAPNGLYVLAGIAESIYLWEVCTGNLLVILSRHYQDVSCLKFTGDGSHFVSAGKDCLALAWSLCSVLQADPSRILAPRHVWSQHTLPITDLHCGFGGPMARVATASLDQTVKLWAISSGDLLLSVLFDMGITSVTMDLAEHHIFCGGSDGSIFQVDLCSWPGLREHSFQPEQNTGKVFKGHRNQVTCLSVSTDGSVLLSGSHDESVRLWDVKSKQCLRTVTLKGPVTNAAIILAPPSMLNPEFRPSLPLPHFNKHLLGAEHGDEAQGGGLRLQLGLHLQGKEPSYLERLEQLQAVLSSYLEKNMLGSQMLPARVFDLEDEVRSLRKINRDLFDFSTRIITRPSK
B3: Eif2a (protein, UniProt Q8BJW6 1-581)
chain: MAPSTPLLTVRGSEGLYMVNGPPHFTESTVLPRESGRNCKVYTFSKDGTLFAWSNGEKVNIINVANKGLLHSFDLPKAVCLEFSPNNTVLATWQPYTTSKDGTAGTPNLQLYDMKTGACLKSFIQKKMQNWCPSWSDDEIICARNVNNEVHFFENNNFNTIANKLHLQKVNDFNLSPGTQPYKVAVYVPGSKGAPSFVRLYQYPNFAGPQAALANKSFFKADKVTMLWNKKATAVLVIASTEVDKTGASYYGEQTLHYIATNGESAVVQLPKNGPIYDVVWNSSSTEFCAVYGFMPAKATVFNLKCDPVFDFGTGPRNAAFYSPHGHILVLAGFGNLRGQMEVWDVKNYKLISKPVASDSTYFAWCPDGEHILTATCAPRLRVNNGYKIWHYTGSLLHKYDVPSNGELWQVSWQPFLDGIFPAKTIKYQAVPSEVPSEEPKVATAYRPPALRNKPVTNSKLHEEEPPQNMKPHPGSDKPLSKTALKNQRKHEAKKAAKQEARSDAAPTPVPQSAPRNTVTQSASGDPEVDKKIKNLKKKLKAIEQLKEQAAAGKQLEKNQLEKIQKETALLQELEDLELGV
B4: Nup107 (protein, UniProt Q8BH74 1-926)
chain: MDRSGFGGMSSPVIRDAEVTRTARKHSAHKRVLIQANQEDNFGTATPRSQIIPRTPSSFRQPFVTPSSRSLLRHPDISYILGTEGRSPRHTQSSGYLGNLSMVTNLDDSNWAAAFSSQRLGLYTNTEHHSMTEDVNLSTVMLREDDPGEAASMSMFSDFLHSFLKHSSTTVFDLVEEYENICGSQVNILSKIVSRATPGLQKFSKTASMLWLLQQEMVTWRLLASLYRDRIQSSLEEENMFAIAGINASEKMVVETLFQRDSLVRQSQLVVDWLESIAKDEIGEFSDNIEFYAKSVYWENTLHSLKQRQLLSHMGSTRPLVTELDPDAPIRQKLPLDDLDREDEVRLLKYLFTLIRAGMTEEAQRLCKRCGQAWRAATLEGWKLYHDPNVNGGTELEPVEGNPYRRIWKISCWRMAEDELFNKYERAIYAALSGNLKQLLPVCDTWEDTVWAYFRVMVDSLVEQEIRTSVMTQDDSEELPREYMEANWTLEKVFEELQATDKKRVLEENQEHYHIVQKFLILGDVDGLMDEFSKWLSKSGSSLPGHLLRFMTHLILFLRTLGLQTKEEVSIEVLKTYIQLLISEKHTSLIAFYTCHLPQDLAVAQYALFLEGVTEFEQRHQCLELAKEADLDVATITKTVVENICKKDNGEFSHHDLAPSLDTGTTEEDRLKIDVIDWLVFDPAQRAEALRQGNAIMRKFLALKKHEAAKEVFVKIPQDSIAEIYNQWEEQGMESPLPAEDDNAIREHLCIRAYLEAHETFNEWFKHMNSAPQKPTLLSQATFTEKVAYEHREKKYEMDHNIWKGHLDALTADVKEKMYNVLLFVDGGWMVDVREDAEDDPERTHQMVLLRKLCLPMLCFLLHTILHSTGQYQECLQLADMVSSERHKLYLVFSKEELRKLLQKLRESSLMLLDQGLDPLGYEIQS

Protein sequences, listed by entry. Tags and fused reporters are not part of them.
UniProt Q3URK3: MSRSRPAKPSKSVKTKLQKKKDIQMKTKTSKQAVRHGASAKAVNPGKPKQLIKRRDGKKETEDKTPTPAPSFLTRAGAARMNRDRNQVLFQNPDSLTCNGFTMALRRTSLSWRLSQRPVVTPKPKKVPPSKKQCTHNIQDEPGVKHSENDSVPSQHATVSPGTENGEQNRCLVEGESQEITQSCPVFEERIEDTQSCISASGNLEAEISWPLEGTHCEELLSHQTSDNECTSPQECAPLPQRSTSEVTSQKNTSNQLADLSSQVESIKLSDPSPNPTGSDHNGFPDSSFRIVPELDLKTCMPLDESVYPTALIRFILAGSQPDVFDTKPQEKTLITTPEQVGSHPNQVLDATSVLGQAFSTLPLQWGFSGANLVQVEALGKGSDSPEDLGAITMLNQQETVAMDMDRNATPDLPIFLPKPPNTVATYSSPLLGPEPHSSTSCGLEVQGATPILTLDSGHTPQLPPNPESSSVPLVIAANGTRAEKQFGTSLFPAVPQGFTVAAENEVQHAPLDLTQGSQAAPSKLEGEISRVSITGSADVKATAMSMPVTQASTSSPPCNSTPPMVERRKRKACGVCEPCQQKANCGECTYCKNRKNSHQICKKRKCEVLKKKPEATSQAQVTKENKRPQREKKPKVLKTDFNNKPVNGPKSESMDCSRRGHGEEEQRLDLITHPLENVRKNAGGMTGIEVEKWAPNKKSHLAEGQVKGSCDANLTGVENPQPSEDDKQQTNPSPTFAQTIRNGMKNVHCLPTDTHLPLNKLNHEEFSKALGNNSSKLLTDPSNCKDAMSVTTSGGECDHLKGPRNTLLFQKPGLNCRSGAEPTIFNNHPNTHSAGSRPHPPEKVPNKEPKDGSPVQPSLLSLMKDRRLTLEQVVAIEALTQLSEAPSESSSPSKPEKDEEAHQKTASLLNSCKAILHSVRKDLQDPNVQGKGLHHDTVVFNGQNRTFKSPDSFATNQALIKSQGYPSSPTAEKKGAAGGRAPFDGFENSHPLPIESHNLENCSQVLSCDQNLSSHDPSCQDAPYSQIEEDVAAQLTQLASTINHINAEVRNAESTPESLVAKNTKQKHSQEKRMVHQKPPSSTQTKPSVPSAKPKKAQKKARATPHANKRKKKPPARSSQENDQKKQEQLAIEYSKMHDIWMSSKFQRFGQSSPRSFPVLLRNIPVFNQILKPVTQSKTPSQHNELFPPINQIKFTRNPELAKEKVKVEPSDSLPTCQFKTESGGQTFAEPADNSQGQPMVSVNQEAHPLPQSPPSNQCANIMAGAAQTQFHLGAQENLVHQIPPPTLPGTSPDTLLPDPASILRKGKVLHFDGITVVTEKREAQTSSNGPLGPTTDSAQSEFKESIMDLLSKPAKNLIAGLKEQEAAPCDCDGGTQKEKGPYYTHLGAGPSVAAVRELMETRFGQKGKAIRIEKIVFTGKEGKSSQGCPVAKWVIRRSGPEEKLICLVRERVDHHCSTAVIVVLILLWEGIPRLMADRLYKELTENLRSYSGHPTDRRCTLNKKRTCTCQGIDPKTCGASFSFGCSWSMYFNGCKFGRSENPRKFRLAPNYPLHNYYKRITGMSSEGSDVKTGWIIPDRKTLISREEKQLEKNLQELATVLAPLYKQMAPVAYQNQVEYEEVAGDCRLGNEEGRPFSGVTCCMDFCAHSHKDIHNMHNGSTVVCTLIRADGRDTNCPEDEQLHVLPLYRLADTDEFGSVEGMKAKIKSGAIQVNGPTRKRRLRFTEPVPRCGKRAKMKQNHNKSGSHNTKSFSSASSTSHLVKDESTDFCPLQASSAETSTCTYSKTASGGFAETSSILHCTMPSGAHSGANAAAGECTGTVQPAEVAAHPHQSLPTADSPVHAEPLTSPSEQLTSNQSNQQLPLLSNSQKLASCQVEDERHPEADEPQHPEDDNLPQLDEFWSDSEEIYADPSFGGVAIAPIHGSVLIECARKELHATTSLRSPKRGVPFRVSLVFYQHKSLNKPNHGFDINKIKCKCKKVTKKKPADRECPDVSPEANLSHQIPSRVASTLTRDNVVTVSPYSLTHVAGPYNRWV

What follows are binders tested against TET1 (ten-eleven translocation 1), endogenous in oligodendrocyte lineage cells (mouse (endogenous in primary mouse OPCs and OLs)) (UniProt Q3URK3) (assay: affinity purification with mass spectrometry; IP of endogenous TET1 (rabbit anti-TET1, Catch and Release kit) from RIPA lysate of mouse mature OLs; normal IgG as control; SDS-PAGE, in-gel trypsin digestion, LC-MS/MS; done twice).

Row | binding | Binder
1 | binds | B1
2 | binds | B2
3 | binds | B3
4 | binds | B4

— PMC7493855
